Article PMC9380774, “Mpe1 senses the binding of pre-mRNA and controls 3′ end processing by CPF” (Molecular Cell, 2022)

Columns and labels:
[1] = system: polymerase module (Cft1-Pap1-Pfs2-Fip1-Yth1) (Saccharomyces cerevisiae); assay: EMSA; settings: 50 nM RNA, no Mpe1; 50 nM FAM-RNA, 10% native PAGE 1X TBE, room temperature; recombinant protein; label: 5' 6-FAM
[2] = system: polymerase module (Cft1-Pap1-Pfs2-Fip1-Yth1) + Mpe1; assay: EMSA; settings: 50 nM RNA, affinity of polymerase module not substantially affected by Mpe1; 50 nM FAM-RNA, 10% native PAGE 1X TBE, room temperature; recombinant protein; label: 5' 6-FAM
[3] = system: polymerase module (Cft1-Pap1-Pfs2-Fip1-Yth1) + Mpe1 + Cft2; assay: size exclusion chromatography; settings: RNA restores Mpe1 incorporation in presence of Cft2; SEC: Superose 6 Increase 3.2/300 in SEC 50; recombinant protein; label: 5' 6-FAM

Measured: binding result

UUUAUAGUUAUGUUAGUAUUAAGAACGUUAUUUAUAUUUCAA [precleaved CYC1 (pcCYC1), 42 nt]
binds: all assays above

For at least one entry, the source does not settle the construct or the ends of the probe. At least one verdict was read from the data and is not stated in words by the source.
